Measured values: PubChem BioAssay AID624291 (National Center for Advancing Translational Sciences (NCATS), 2012)
About 220 (0.063%) of roughly 350,000 compounds were called active. Inconclusive results, whose numbers are uncertain, are shown with a selection of clear calls. Calls come from the whole dose curve; as a rule, active = well fitted activation curve with a large enough effect; inconclusive = small, poorly fitted or top-dose-only effect; inactive = no such curve, though single readings can be large or run the other way. Where the call is inconclusive, the potency comes from a doubtful curve fit.

Test: qHTS for Activators of Integrin-Mediated Alleviation for Muscular Dystrophy; note: nearly all actives have a fitted effect of over 60% in size;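 for activation: 100% = response of the positive control SU9516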
Settings: alpha7betagal myoblasts, beta-gal FDG fluorescence, 48 h; activation: at 38.3 µM (top of the series)
In short: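 Alpha7betagal+/- myoblasts (passage 13) were plated 16-24 hr, then exposed to compounds (1:260 dilution of DMSO stock) for 48 hours at 37C. After MPER lysis, β-galactosidase reporter activity was read as FDG fluorescence (ex 480/em 540) after 30 minutes.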
Potency is the fitted concentration of half-maximal effect.

Structure (SMILES)	activation	Potency
Clc1c(-c2ccccc2)nc2ccccn12	inactive: 43%	
Cc1ccc(NC(=O)C2C3CCC(O3)C2C(=O)O)cc1Cl (configuration not stated)		inconclusive: 5.01 µM [activator, single point]
O=C(NCc1ccccc1)c1ccc(-c2ccc(F)cc2)o1	inactive: -3.93%	
Clc1cccc(/C=N/Nc2ncnc3ccccc23)c1	inactive: 3.84%	
Cc1cc(C)c2nc(N(CCN(C)C)C(=O)c3ccc4ccccc4c3)sc2c1		inconclusive: 2 µM [activator, single point]
Cc1ccc(NC(=O)CN2C(=O)C3CC=CCC3C2=O)cc1S(=O)(=O)N1CCOCC1 (configuration not stated)		inconclusive: 3.55 µM [activator, single point]
COc1ccc(/C=C2\Sc3ccc(C(=O)NCc4cccnc4)cc3N(C)C2=O)cc1OC	inactive: -52.6%	
COc1ccc(NC(=O)c2ccc3c(c2)CCN3S(=O)(=O)c2ccccc2)c(OC)c1		inconclusive: 10 µM [activator, partial curve, poor fit]
Cn1cccc1/C=N/NC(=O)c1ccccn1		inconclusive: 2.24 µM [activator, full curve, poor fit]
O=C(NCCC(=O)N1CCOCCOCCOCCOCC1)OCc1ccccc1	inconclusive: -16.5% [activator]	
COCCCNC(=O)CNC(=O)c1nn(-c2ccc(OC)cc2OC)c(=O)c2ccccc12		inconclusive: 1.78 µM [activator, partial curve, poor fit]
CCOc1ccccc1N1CCN(c2ncnc3scc(-c4ccc(OC)cc4)c23)CC1		inconclusive: 3.55 µM [activator, single point]
COc1cc(C2C(C#N)=C(N)N(Nc3ccccc3)C3=C2C(=O)CC(C)(C)C3)ccc1OCc1ccccc1 (configuration not stated)	inactive: -10.6%	
Cc1nnc(SCC(=O)N2CCc3ccccc3C2)n1-c1ccccc1		inconclusive: 5.01 µM [activator, single point]
CCOC(=O)C1CCCN(C(=O)c2cc3nc(-c4ccc5c(c4)OCO5)cc(C(F)(F)F)n3n2)C1 (configuration not stated)	inactive: -37.5%	
CC(O)CSc1nc2c(c(=O)[nH]c(=O)n2C)n1Cc1ccccc1 (configuration not stated)		inconclusive: 8.91 µM [activator, partial curve, poor fit]
Cc1cccc(NC(=S)NC(C)(C)CC(C)(C)C)c1		inconclusive: 5.01 µM [activator, single point]
Nc1nc(SCC(=O)N2CCN(S(=O)(=O)c3ccc(Cl)cc3)CC2)n[nH]1		inconclusive: 5.01 µM [activator, single point]
COc1ccc(Cl)cc1C(=O)Nn1cnnc1		inconclusive: 2.82 µM [activator, single point]
Cn1c(SCC(=O)N2c3ccccc3Sc3ccc(Cl)cc32)nnc1-c1ccco1		inconclusive: 5.01 µM [activator, single point]
O=S(=O)(NC1CC2CCC1C2)c1ccc(Cl)cc1 (configuration not stated)		inconclusive: 3.16 µM [activator, partial curve, poor fit]
COc1ccc(S(=O)(=O)Nc2ccc(Oc3ccsc3C(=O)O)cc2)cc1		inconclusive: 2.51 µM [activator, partial curve, poor fit]
O=C(O)c1cccc2c3c([nH]c12)CCCC3		inconclusive: 3.16 µM [activator, partial curve, poor fit]

Among those listed so far, three have two or more sulfur atoms.
Structure (SMILES)	activation	Potency
Nc1nc(SCC(=O)N2CCN(S(=O)(=O)c3ccc(Cl)cc3)CC2)n[nH]1		inconclusive: 5.01 µM [activator, single point]
Cn1c(SCC(=O)N2c3ccccc3Sc3ccc(Cl)cc32)nnc1-c1ccco1		inconclusive: 5.01 µM [activator, single point]
COc1ccc(S(=O)(=O)Nc2ccc(Oc3ccsc3C(=O)O)cc2)cc1		inconclusive: 2.51 µM [activator, partial curve, poor fit]

Additional records:

Structure (SMILES)	activation	Potency
CCOc1ccc(-n2c(C)c(C(C)=O)c3cc(OC(C)=O)ccc32)cc1		inconclusive: 12.6 µM [activator, single point]
Cc1ccc2nc(-c3ccc(O)cc3)oc2c1		inconclusive: 17.8 µM [activator, single point]
CCOC(=O)N1CCN(CC(=O)N2c3ccccc3Sc3ccccc32)CC1	inactive: -5.46%	
COc1cccc(NC(=O)N2CCCC2C(=O)NCc2ccc(Cl)cc2)c1 (configuration not stated)		inconclusive: 28.2 µM [activator, single point]
c1ccc(CCNc2nc(-c3cccnc3)cs2)cc1		inconclusive: 2.51 µM [activator, partial curve, poor fit]
Cc1cccc(-c2nc3c(c(SCC(=O)N4CCOCC4)n2)Cc2c(CO)cnc(C)c2O3)c1		inconclusive: 12.6 µM [activator, single point]
O=C1C=C(Nc2ccccc2O)c2ccccc2C1=O	inactive: -50.5%	
O=C(NNC(=S)Nc1ccc(Br)cc1)c1ccccc1Br		inconclusive: 1.26 µM [activator, partial curve, poor fit]
CCC(=O)NN1CCc2cc3ccc(C)cc3nc21		inconclusive: 1.26 µM [activator, single point]
CC(=O)Nc1ccc(S(=O)(=O)N2CCC(C(N)=O)(N3CCCCC3)CC2)cc1		inconclusive: 2.24 µM [activator, partial curve, poor fit]
CCOC(=O)c1c(CSC(=N)N)n(-c2ccccc2)c2cc(Br)c(OC(C)=O)cc12		inconclusive: 5.01 µM [activator, single point]
c1ccc(-c2noc(CN3CCc4sccc4C3)n2)cc1		inconclusive: 1.41 µM [activator, partial curve, poor fit]
O=C(OCCCOc1ccc(F)cc1)c1ccc(O)cc1O		inconclusive: 10 µM [activator, single point]
COc1ccc(NC(=O)COC(=O)C2CCC2)cc1Cl		inconclusive: 11.2 µM [activator, single point]
Cc1nc(S/C(=C/c2ccc(-c3ccc(Cl)cc3)o2)C(=O)O)n[nH]1	inactive: -9.42%	
O=C(CSc1nc2ccccc2s1)Nc1cc(C(=O)O)cc(C(=O)O)c1		inconclusive: 5.01 µM [activator, single point]
Cc1ccc(CN(Cc2ccco2)C(=S)Nc2ccccc2C)cc1		inconclusive: 5.01 µM [activator, single point]
O=C1c2ccncc2C(=O)N1C1CCCCC1		inconclusive: 5.01 µM [activator, single point]
CCc1ccc(NC(=O)NC2CCCCCCC2)cc1		inconclusive: 28.2 µM [activator, single point]
CCOc1cc(NC(=O)C2CCCCC2)c(OCC)cc1NC(=O)c1ccccn1	inactive: -1%	
CCN(CC)C(=O)c1ccc(-c2nnc(Nc3ccc(C(=O)NC)cc3)c3ccccc23)cc1		inconclusive: 28.2 µM [activator, single point]
O=C(O)CCCC(=O)Nc1cccc([N+](=O)[O-])c1		inconclusive: 15.8 µM [activator, single point]
CN(C(=O)c1cccc(NC(=O)c2ccccc2)c1)C1CCCCC1		inconclusive: 28.2 µM [activator, single point]

Structure (SMILES)	activation	Potency
CC(=O)N1CCN(C(=S)NC(=O)c2c(-c3ccccc3Cl)noc2C)CC1		inconclusive: 3.98 µM [activator, single point]
Cc1cccc(-n2c(=S)[nH]c3sc4c(c3c2=O)CCc2ccccc2-4)c1	inactive: 5.77%	
COC(=O)c1sc(N)c(C(=O)OC)c1COC(=O)CNS(=O)(=O)c1cccc(C#N)c1		inconclusive: 12.6 µM [activator, partial curve, poor fit]
CCCc1cc(=O)n(-c2nc3ccccc3s2)[nH]1		inconclusive: 0.501 µM [activator, full curve, poor fit]
COc1ccc(C2NC(=S)NC(C)=C2C(=O)N2CCOCC2)cc1 (configuration not stated)		inconclusive: 1 µM [activator, full curve, poor fit]
Cc1cccc(NC(=O)CNC(=O)c2ccccc2Cl)n1		inconclusive: 0.112 µM [activator, full curve, poor fit]
COc1ccc(S(=O)(=O)NCC(=O)N(CC(=O)NCC2CCCO2)c2c(C)cccc2C)cc1 (configuration not stated)		inconclusive: 28.2 µM [activator, single point]
COc1ccc(CC(=O)NCCC2=CCCCC2)cc1		inconclusive: 3.16 µM [activator, single point]
NS(=O)(=O)c1ccc(N/N=C/c2cn(-c3ccccc3)nc2-c2cccs2)c([N+](=O)[O-])c1	inactive: -71.3%	
CCCCOc1ccc(C(=O)NCC(=O)NCc2ccccn2)cc1		inconclusive: 0.794 µM [activator, full curve, poor fit]
O=C(CCC(=O)N1CCOc2ccc(Cl)cc21)NCCCN1CCN(c2ccccc2F)CC1	inactive: -6.73%	
CCOc1nc(-c2ccccc2)ccc1-c1noc(-c2ccco2)n1	inactive: 5.38%	
O=C1Nc2ccccc2C1=Nc1ccc(Br)cc1		inconclusive: 2.51 µM [activator, single point]
CCc1ccccc1N(C(=O)c1snc(C(N)=O)c1N)C(C(=O)NCC1CCCO1)c1ccc(C)o1 (configuration not stated)		inconclusive: 15.8 µM [activator, single point]
CCOC(=O)NC(=O)CSc1nc2ccc(C)cc2[nH]1		inconclusive: 11.2 µM [activator, single point]
NS(=O)(=O)c1cccc(NS(=O)(=O)c2cccc(C(F)(F)F)c2)c1		inconclusive: 8.91 µM [activator, single point]
CN1CCn2c1nc(N1CCCCC1)nc2=O		inconclusive: 1.12 µM [activator, partial curve, poor fit]
CN(C(=O)CCl)C1CCCc2ccccc21 (configuration not stated)	inactive: -75.1%	
C[C@@H]1CN([C@H](C)CO)C(=O)CCCn2nncc2CO[C@H]1CN(C)Cc1ccc(O)cc1	inactive: 17.5%	
COc1ccc(CCNC(=O)CCCCCNC(=O)N2CCn3c2nc2ccccc23)cc1OC		inconclusive: 5.01 µM [activator, single point]
O=C(C[n+]1ccc(C(=O)c2ccccc2)cc1)Nc1ccccc1OC(F)F		inconclusive: 2 µM [activator, partial curve, poor fit]

Reprinted at random: two compounds from above, in no set order.
Structure (SMILES)	activation	Potency
CCOC(=O)NC(=O)CSc1nc2ccc(C)cc2[nH]1		inconclusive: 11.2 µM [activator, single point]
CC(=O)Nc1ccc(S(=O)(=O)N2CCC(C(N)=O)(N3CCCCC3)CC2)cc1		inconclusive: 2.24 µM [activator, partial curve, poor fit]
